Experiment in all cases: two-hybrid; array-based yeast two-hybrid screens; each protein as bait (Gal4 DNA-binding domain) and as prey (Gal4 activation domain), N- and C-terminal fusions; bait-prey vector pairs pDEST32-pDEST22, pGBKT7g-pGADT7g, pGBKT7g-pGADCg, pGBKCg-pGADCg, pGBKCg-pGADT7g; ten configurations a pair; positives retested
The target of test [1] is T1, Nu1 (bacteriophage lambda) (UniProt P03707).
T1 sequence: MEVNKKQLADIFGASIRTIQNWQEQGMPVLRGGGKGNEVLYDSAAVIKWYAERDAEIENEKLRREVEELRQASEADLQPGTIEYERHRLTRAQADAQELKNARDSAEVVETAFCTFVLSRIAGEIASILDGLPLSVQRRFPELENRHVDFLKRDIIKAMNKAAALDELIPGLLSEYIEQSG

Sequences of proteins named here, by UniProt entry; tags and fusion partners are left off.
UniProt P03740: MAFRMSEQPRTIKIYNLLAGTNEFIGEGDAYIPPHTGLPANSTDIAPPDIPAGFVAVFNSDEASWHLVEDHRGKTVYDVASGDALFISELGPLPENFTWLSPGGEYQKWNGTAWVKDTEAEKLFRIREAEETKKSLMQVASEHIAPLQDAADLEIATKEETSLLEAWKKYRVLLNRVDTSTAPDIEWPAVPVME
UniProt P03768: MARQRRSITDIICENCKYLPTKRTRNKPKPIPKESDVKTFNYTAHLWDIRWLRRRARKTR

Test [2] concerns the target T2, Integrase (Int) (bacteriophage lambda) (UniProt P03700).
T2 sequence: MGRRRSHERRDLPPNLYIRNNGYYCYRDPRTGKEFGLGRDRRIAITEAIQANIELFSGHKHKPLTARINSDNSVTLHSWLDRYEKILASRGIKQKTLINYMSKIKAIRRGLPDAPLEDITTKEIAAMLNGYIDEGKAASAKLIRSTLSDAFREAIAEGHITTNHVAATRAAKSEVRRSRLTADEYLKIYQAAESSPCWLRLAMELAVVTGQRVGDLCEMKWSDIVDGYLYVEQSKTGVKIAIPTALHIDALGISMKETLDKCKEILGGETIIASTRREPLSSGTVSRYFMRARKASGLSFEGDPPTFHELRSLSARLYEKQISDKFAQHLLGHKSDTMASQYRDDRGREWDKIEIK

The target in test [3] is T3, U (bacteriophage lambda) (UniProt P03732).
T3 sequence: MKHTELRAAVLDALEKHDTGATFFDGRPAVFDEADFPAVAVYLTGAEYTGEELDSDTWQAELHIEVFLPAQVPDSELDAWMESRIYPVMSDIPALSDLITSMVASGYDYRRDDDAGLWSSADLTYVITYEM

For test [4], the target named is T4, antiterminator N (bacteriophage lambda) (UniProt P03045).
T4 sequence: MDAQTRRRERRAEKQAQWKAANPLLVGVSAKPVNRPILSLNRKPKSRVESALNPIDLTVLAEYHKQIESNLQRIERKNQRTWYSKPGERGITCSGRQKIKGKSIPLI

No constants are given. Whether binding was seen depends on the method and setting. Some binding calls cover weakened binding; strength is not graded here.

Turning to “tail fiber protein Tfa (from UniProt P03740 1-194)”, the binding entry in test [1] and in test [2] was “binds” each time. Turning to NinE (from UniProt P03768 1-60), the binding result in test [3] was “binds”.

B1: U (protein, UniProt P03732 1-131)
chain: T3 sequence
Consider B1, for which the binding entry in test [3] is “binds weakly”.

B2: NinB (protein, UniProt P03765 1-146)
chain: MKKLTFEIRSPAHQQNAIHAVQQILPDPTKPIVVTIQERNRSLDQNRKLWACLGDVSRQVEWHGRWLDAESWKCVFTAALKQQDVVPNLAGNGFVVIGQSTSRMRVGEFAELLELIQAFGTERGVKWSDEARLALEWKARWGDRAA
With B2, in test [3], the binding entry is “binds”.

B3: Integrase (Int) (protein, UniProt P03700 1-356)
chain: T2 sequence
Regarding B3, the binding entry in test [2] is recorded as “binds”.

B4: excisionase (Xis) (protein, UniProt P03699 1-72)
chain: MYLTLQEWNARQRRPRSLETVRRWVRECRIFPPPVKDGREYLFHESAVKVDLNRPVTGGLLKRIRNGKKAKS
With B4, the binding entry in test [3] was “binds”.

B5: R (protein, UniProt P03706 1-158)
chain: MVEINNQRKAFLDMLAWSEGTDNGRQKTRNHGYDVIVGGELFTDYSDHPRKLVTLNPKLKSTGAGRYQLLSRWWDAYRKQLGLKDFSPKSQDAVALQQIKERGALPMIDRGDIRQAIDRCSNIWASLPGAGYGQFEHKADSLIAKFKEAGGTVREIDV
Regarding B5, the binding result in test [1] was “binds”.

B6: L (protein, UniProt P03738 1-232)
chain: MQDIRQETLNECTRAEQSASVVLWEIDLTEVGGERYFFCNEQNEKGEPVTWQGRQYQPYPIQGSGFELNGKGTSTRPTLTVSNLYGMVTGMAEDMQSLVGGTVVRRKVYARFLDAVNFVNGNSYADPEQEVISRWRIEQCSELSAVSASFVLSTPTETDGAVFPGRIMLANTCTWTYRGDECGYSGPAVADEYDQPTSDITKDKCSKCLSGCKFRNNVGNFGGFLSINKLSQ
On to B6, for which the binding entry in test [4] was “binds”.

Values taken from PMC3224144.
